Source: the supplement of paper PMC10849652
Some of the results follow.

Protein sequences, listed by entry. Tags and fused reporters are not part of them. Lines headed by an entry give the natural chain unless they say otherwise; changes in a name come on top.
UniProt P37108: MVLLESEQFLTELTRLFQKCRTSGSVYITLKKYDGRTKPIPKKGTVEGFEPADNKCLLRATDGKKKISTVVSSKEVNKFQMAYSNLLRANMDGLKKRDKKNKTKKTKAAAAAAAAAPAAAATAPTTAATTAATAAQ
UniProt Q8NEF9: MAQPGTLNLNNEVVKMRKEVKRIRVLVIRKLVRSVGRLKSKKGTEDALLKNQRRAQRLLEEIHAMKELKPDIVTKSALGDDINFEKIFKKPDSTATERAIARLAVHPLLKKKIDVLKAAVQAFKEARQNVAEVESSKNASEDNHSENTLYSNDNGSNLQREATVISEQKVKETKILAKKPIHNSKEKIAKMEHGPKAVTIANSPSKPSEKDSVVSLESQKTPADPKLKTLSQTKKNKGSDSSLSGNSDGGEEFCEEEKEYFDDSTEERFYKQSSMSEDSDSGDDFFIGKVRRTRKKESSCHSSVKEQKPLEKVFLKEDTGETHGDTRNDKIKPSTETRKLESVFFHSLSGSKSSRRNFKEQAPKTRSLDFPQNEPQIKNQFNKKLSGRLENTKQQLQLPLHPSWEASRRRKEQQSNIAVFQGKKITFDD
UniProt Q08170: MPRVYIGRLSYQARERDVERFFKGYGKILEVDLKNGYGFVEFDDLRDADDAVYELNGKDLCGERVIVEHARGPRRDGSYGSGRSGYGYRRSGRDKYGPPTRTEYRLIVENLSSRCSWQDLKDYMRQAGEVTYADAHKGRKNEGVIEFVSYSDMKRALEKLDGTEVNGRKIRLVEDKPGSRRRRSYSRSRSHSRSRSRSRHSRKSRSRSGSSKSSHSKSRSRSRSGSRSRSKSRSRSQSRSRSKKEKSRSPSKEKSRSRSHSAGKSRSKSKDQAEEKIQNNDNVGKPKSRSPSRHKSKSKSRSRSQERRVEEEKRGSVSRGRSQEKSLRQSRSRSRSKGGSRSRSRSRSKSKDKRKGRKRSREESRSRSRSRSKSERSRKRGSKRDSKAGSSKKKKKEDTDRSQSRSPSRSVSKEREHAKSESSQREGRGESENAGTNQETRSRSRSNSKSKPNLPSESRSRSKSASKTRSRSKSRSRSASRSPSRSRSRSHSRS
UniProt Q8N1F8: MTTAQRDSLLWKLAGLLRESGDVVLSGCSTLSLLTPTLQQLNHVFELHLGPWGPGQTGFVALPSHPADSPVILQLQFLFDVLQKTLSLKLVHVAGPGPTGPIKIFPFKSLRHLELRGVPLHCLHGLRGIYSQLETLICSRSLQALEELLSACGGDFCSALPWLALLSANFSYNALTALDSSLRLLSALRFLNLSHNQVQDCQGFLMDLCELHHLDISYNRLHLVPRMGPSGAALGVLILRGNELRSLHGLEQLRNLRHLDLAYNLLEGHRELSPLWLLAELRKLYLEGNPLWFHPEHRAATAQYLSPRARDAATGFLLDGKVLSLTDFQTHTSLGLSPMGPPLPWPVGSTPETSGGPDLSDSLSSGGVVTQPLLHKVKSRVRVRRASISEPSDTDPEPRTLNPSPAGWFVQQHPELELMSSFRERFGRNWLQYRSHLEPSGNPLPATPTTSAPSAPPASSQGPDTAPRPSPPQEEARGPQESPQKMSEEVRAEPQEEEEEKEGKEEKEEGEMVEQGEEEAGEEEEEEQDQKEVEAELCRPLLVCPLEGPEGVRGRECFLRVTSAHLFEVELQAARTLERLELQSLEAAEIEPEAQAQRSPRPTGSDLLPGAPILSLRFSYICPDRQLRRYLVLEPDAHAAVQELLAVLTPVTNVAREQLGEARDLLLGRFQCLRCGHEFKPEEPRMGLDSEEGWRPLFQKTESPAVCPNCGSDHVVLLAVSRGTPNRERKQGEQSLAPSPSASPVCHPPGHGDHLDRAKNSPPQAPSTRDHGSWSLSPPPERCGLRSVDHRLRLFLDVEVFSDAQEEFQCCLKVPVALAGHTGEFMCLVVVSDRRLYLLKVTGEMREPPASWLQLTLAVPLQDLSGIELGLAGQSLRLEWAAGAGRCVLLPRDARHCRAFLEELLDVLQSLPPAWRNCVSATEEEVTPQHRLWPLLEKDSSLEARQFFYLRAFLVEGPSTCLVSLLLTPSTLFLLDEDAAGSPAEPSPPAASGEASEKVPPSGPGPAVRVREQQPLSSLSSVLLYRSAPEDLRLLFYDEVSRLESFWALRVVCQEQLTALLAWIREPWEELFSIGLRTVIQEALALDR
UniProt P50502: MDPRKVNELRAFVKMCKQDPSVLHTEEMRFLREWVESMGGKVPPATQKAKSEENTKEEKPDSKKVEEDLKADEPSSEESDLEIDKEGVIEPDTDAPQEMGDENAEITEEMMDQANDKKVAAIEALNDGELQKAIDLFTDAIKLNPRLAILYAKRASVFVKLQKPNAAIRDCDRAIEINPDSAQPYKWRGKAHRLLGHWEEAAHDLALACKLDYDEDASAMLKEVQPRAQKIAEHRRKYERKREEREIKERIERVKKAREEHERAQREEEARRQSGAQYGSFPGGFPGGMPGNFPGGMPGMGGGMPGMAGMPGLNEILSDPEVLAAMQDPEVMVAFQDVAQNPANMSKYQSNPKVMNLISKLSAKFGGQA
UniProt O95772: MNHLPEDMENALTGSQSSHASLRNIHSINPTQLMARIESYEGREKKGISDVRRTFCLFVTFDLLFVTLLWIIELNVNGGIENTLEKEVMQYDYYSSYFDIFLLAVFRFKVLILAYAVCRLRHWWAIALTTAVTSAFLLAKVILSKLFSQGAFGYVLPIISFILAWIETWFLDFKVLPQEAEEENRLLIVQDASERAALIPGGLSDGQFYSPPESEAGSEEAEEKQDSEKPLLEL
UniProt P16150: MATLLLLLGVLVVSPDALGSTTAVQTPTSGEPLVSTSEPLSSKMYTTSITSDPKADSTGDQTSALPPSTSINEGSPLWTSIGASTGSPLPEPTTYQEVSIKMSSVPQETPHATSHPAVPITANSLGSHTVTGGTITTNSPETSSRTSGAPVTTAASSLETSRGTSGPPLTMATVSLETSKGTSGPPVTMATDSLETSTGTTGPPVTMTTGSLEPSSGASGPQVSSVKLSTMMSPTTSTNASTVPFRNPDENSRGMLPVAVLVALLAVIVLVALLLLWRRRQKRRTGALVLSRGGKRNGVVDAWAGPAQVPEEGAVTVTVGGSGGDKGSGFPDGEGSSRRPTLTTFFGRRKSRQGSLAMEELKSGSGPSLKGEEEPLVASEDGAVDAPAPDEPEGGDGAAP
UniProt P05455: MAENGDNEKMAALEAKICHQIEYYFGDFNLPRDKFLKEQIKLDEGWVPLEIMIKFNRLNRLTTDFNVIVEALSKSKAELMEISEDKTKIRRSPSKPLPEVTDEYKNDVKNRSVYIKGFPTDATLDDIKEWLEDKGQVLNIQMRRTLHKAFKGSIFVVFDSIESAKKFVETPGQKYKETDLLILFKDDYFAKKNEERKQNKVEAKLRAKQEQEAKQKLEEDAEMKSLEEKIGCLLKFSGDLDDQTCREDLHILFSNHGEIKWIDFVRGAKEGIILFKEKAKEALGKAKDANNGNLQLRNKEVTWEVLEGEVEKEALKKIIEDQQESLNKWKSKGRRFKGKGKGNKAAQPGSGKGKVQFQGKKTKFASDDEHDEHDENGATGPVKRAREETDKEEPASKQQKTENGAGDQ
UniProt Q12772: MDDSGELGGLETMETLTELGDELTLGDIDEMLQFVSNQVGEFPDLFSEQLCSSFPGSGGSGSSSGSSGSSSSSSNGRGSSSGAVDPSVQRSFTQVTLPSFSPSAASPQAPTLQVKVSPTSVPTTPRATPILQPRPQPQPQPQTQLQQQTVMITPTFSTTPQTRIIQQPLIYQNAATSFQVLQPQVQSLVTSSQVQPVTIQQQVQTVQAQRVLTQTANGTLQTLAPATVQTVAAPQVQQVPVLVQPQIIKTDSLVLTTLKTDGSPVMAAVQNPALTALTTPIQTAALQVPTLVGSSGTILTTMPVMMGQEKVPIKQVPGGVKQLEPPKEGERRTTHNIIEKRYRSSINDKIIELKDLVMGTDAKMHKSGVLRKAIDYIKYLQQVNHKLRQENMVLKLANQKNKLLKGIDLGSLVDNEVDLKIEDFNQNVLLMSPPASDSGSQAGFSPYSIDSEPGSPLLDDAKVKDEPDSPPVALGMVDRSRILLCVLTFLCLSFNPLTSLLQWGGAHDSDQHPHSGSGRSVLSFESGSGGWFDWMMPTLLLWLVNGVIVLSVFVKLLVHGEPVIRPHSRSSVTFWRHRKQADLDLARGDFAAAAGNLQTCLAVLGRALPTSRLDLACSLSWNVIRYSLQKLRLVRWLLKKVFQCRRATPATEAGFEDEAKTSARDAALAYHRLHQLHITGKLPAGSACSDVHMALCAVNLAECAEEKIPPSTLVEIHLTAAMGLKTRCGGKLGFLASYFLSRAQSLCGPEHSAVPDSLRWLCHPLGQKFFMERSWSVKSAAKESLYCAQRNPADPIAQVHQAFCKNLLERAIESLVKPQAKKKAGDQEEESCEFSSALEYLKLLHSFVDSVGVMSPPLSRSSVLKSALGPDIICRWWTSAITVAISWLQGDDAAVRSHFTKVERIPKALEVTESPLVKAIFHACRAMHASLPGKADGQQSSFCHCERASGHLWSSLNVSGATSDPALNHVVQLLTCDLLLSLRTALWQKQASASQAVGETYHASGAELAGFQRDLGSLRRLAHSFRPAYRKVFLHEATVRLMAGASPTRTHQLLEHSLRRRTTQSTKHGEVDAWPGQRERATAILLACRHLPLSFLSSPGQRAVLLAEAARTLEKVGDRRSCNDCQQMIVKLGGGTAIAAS
UniProt Q05519: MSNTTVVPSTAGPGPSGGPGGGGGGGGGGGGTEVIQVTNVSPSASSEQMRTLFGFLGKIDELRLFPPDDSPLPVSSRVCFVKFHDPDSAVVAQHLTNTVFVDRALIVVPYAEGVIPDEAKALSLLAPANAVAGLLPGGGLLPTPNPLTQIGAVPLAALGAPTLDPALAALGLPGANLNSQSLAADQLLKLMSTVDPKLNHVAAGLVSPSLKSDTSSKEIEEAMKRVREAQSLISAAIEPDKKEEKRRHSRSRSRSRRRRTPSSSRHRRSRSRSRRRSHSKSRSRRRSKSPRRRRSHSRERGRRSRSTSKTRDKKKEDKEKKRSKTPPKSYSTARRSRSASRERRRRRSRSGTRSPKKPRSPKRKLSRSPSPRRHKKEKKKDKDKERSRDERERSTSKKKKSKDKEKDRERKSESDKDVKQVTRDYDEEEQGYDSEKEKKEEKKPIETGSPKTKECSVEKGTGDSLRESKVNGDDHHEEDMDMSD
UniProt Q8IYB3: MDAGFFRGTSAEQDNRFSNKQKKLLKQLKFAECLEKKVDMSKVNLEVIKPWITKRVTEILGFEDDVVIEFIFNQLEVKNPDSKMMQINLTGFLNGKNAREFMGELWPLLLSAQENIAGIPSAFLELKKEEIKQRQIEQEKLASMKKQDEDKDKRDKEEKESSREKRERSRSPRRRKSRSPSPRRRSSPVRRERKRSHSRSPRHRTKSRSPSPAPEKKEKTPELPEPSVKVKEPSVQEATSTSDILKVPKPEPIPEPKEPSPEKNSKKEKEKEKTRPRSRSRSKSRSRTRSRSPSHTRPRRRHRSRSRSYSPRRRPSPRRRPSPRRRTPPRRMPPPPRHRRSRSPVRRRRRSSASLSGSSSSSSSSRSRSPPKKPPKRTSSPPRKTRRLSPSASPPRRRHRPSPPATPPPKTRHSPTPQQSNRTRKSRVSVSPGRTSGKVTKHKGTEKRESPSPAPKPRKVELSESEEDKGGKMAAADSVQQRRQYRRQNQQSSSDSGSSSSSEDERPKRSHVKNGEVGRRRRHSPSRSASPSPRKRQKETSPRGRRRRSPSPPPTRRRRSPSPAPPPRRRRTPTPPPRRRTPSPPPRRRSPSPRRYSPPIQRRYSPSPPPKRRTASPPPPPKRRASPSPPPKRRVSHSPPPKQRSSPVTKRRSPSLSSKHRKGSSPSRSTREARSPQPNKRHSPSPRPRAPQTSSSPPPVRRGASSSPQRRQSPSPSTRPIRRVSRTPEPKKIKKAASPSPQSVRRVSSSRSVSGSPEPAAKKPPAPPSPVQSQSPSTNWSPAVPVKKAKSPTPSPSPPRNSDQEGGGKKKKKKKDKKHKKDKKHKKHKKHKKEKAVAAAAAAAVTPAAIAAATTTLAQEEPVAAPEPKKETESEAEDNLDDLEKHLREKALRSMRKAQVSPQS
UniProt Q9P289: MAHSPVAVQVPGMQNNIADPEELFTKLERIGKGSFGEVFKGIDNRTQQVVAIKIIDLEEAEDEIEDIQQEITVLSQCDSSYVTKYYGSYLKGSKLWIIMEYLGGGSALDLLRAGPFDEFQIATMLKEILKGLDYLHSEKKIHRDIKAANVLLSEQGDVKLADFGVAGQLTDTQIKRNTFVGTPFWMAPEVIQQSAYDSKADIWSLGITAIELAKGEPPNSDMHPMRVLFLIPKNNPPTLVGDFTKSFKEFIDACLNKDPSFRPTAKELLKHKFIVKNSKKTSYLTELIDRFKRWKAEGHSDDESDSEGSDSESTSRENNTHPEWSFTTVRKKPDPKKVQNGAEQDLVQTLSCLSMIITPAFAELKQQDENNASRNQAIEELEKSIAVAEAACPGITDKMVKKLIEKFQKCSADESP

Assays:
Test in all cases: log2 fold change, soluble protein after heating vs DMSO (PISA); higher = thermal stabilisation; K562 cells, 10 uM, 30 min; active = over 0.2 and 3.5 SD of the protein, either way, in both replicates (recomputed)
[1] = compound: COC1=CC=C(C=C1)CN2C=CC3=C2C=C(C=C3)C(=O)NO
How it was run: (§1)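 K562 cells at 2×10^6 cells/mL were exposed to 10 μM compound for 30 min, then aliquots were heated for 3 min across 48°C-58°C, pooled, and extracted in PBS containing 0.5% NP-40 at 4°C. The supernatant after 21,000xg for 90 min was taken as soluble protein and measured by TMTpro 16plex LC-MS/MS with channel sums equalised. Thermal stability is reported relative to control samples, with values from duplicates. Fold changes are given on a log2 scale.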

filanesib = compound: CON(C)C(=O)N1N=C(c2cc(F)ccc2F)S[C@@]1(CCCN)c1ccccc1 [filanesib]
How it was run: as §1

zotarolimus = compound: CO[C@H]1C[C@@H]2CC[C@@H](C)[C@@](O)(O2)C(=O)C(=O)N2CCCC[C@H]2C(=O)O[C@H]([C@H](C)C[C@@H]2CC[C@H](n3cnnn3)[C@H](OC)C2)CC(=O)[C@H](C)/C=C(\C)[C@@H](O)[C@@H](OC)C(=O)[C@H](C)C[C@H](C)/C=C/C=C/C=C/1C [zotarolimus]
How it was run: as §1

idasanutlin = compound: COc1cc(C(=O)O)ccc1NC(=O)[C@@H]1N[C@@H](CC(C)(C)C)[C@](C#N)(c2ccc(Cl)cc2F)[C@H]1c1cccc(Cl)c1F [idasanutlin]
How it was run: as §1

alisertib = compound: COc1cc(Nc2ncc3c(n2)-c2ccc(Cl)cc2C(c2c(F)cccc2OC)=NC3)ccc1C(=O)O [alisertib]
How it was run: as §1

[2] = compound: COc1cc2nc(-c3cc(F)ccc3O)nc(N[C@@H]3CNC[C@H]3C(C)(C)O)c2cc1OC
How it was run: as §1

gefitinib = compound: COc1cc2ncnc(Nc3ccc(F)c(Cl)c3)c2cc1OCCCN1CCOCC1 [gefitinib]
How it was run: as §1

[3] = compound: COc1cccc2cc(-c3nc([C@H]4CC[C@H](C(=O)O)CC4)n4ncnc(N)c34)[nH]c12
How it was run: as §1

lapatinib = compound: CS(=O)(=O)CCNCc1ccc(-c2ccc3ncnc(Nc4ccc(OCc5cccc(F)c5)c(Cl)c4)c3c2)o1 [lapatinib]
How it was run: as §1

pictilisib = compound: CS(=O)(=O)N1CCN(Cc2cc3nc(-c4cccc5[nH]ncc45)nc(N4CCOCC4)c3s2)CC1 [pictilisib]
How it was run: as §1

Measured: log2 fold change

SRP14 (UniProt P37108)
inactive: [1] -0.258 | filanesib 0.36 | zotarolimus -0.023 | idasanutlin 0.224 | alisertib -0.111 | [2] -0.106 | gefitinib -0.022 | [3] -0.209 | lapatinib 0.1 | pictilisib -0.126

SRFBP1 (UniProt Q8NEF9)
inactive: [1] 0.013 | filanesib 0.193 | zotarolimus -0.021 | idasanutlin -0.018 | alisertib -0.027 | [2] 0.306 | gefitinib 0.06 | [3] -0.072 | lapatinib 0.13 | pictilisib -0.065

SRSF4 (UniProt Q08170)
inactive: [1] -0.085 | filanesib 0.234 | zotarolimus 0.053 | idasanutlin 0.207 | alisertib -0.137 | [2] -0.04 | gefitinib -0.014 | [3] -0.089 | lapatinib 0.137 | pictilisib -0.007

SRSF5 (UniProt Q13243)
inactive: [1] -0.04 | filanesib 0.308 | zotarolimus 0.143 | idasanutlin 0.036 | alisertib -0.109 | [2] -0.043 | gefitinib -0.038 | [3] -0.12 | lapatinib 0.133 | pictilisib -0.025

STK11IP (UniProt Q8N1F8)
inactive: [1] -0.029 | filanesib 0.042 | zotarolimus 0.195 | idasanutlin 0.044 | alisertib -0.131 | [2] -0.172 | gefitinib -0.072 | [3] -0.139 | lapatinib -0.088 | pictilisib 0.117

SRI (UniProt P30626)
inactive: [1] -0.015 | filanesib 0.053 | zotarolimus 0.133 | idasanutlin -0.031 | alisertib -0.035 | [2] -0.109 | gefitinib 0.01 | [3] 0.023 | lapatinib 0.008 | pictilisib -0.04

STK24 (UniProt Q9Y6E0)
inactive: [1] -0.012 | filanesib -0.075 | zotarolimus -0.003 | idasanutlin -0.025 | alisertib -0.021 | [2] 0.089 | gefitinib -0.028 | [3] 0.044 | lapatinib -0.038 | pictilisib -0.025

STIP1 isoform 2 (UniProt P31948)
inactive: [1] 0.061 | filanesib -0.062 | zotarolimus -0.005 | idasanutlin -0.012 | alisertib -0.045 | [2] 0.011 | gefitinib -0.001 | [3] 0.008 | lapatinib -0.019 | pictilisib -0.028

ST13 (UniProt P50502)
inactive: [1] 0.008 | filanesib -0.076 | zotarolimus 0.017 | idasanutlin -0.052 | alisertib -0.038 | [2] 0.007 | gefitinib 0 | [3] -0.007 | lapatinib -0.037 | pictilisib 0.006

SPTBN2 (UniProt O15020)
inactive: [1] 0.013 | filanesib 0.105 | zotarolimus -0.098 | idasanutlin 0.039 | alisertib 0.076 | [2] 0.007 | gefitinib 0.015 | [3] -0.163 | lapatinib 0.016 | pictilisib 0

STAG1 (UniProt Q8WVM7)
inactive: [1] 0.096 | filanesib -0.001 | zotarolimus 0.045 | idasanutlin -0.046 | alisertib -0.056 | [2] 0.015 | gefitinib 0.002 | [3] 0 | lapatinib 0.023 | pictilisib 0.005

STAG2 (UniProt Q8N3U4)
inactive: [1] 0.108 | filanesib 0.023 | zotarolimus 0.003 | idasanutlin -0.008 | alisertib -0.01 | [2] 0.007 | gefitinib 0.026 | [3] 0.02 | lapatinib -0.012 | pictilisib 0.027

SPTLC2 (UniProt O15270)
inactive: [1] -0.008 | filanesib -0.119 | zotarolimus 0.019 | idasanutlin -0.04 | alisertib -0.019 | [2] -0.035 | gefitinib 0.011 | [3] 0.031 | lapatinib 0.022 | pictilisib 0.102

STARD3NL (UniProt O95772)
inactive: [1] -0.005 | filanesib -0.082 | zotarolimus -0.054 | idasanutlin -0.19 | alisertib -0.056 | [2] 0.095 | gefitinib 0.048 | [3] 0.075 | lapatinib -0.048 | pictilisib 0.024

SSBP1 (UniProt Q04837)
inactive: [1] -0.11 | filanesib 0.086 | zotarolimus -0.002 | idasanutlin 0.051 | alisertib -0.073 | [2] -0.003 | gefitinib -0.005 | [3] -0.009 | lapatinib 0.033 | pictilisib 0.041

SPN (UniProt P16150)
inactive: [1] -0.013 | filanesib 0.079 | zotarolimus -0.072 | idasanutlin 0.034 | alisertib -0.068 | [2] 0.042 | gefitinib -0.003 | [3] 0.035 | lapatinib -0.068 | pictilisib 0

SRPK2 isoform 2 (UniProt P78362)
inactive: [1] -0.081 | filanesib 0.308 | zotarolimus 0 | idasanutlin 0.213 | alisertib -0.052 | [2] -0.067 | gefitinib -0.073 | [3] -0.146 | lapatinib 0.119 | pictilisib -0.081

SSB (UniProt P05455)
inactive: [1] -0.036 | filanesib 0.049 | zotarolimus -0.063 | idasanutlin 0 | alisertib -0.046 | [2] -0.132 | gefitinib -0.016 | [3] -0.101 | lapatinib -0.031 | pictilisib -0.042

SPTB isoform 2 (UniProt P11277)
inactive: [1] -0.148 | filanesib 0.346 | zotarolimus 0.047 | idasanutlin 0.032 | alisertib -0.028 | [2] -0.179 | gefitinib -0.097 | [3] -0.216 | lapatinib -0.053 | pictilisib -0.028

SREBF2 (UniProt Q12772)
inactive: [1] -0.077 | filanesib 0.07 | alisertib 0.653 | gefitinib -0.04 | [3] 0.04

SRSF11 (UniProt Q05519)
inactive: [1] 0.084 | filanesib 0.093 | zotarolimus 0.012 | idasanutlin -0.021 | alisertib -0.079 | [2] 0.017 | gefitinib 0.023 | [3] 0.018 | lapatinib 0 | pictilisib -0.164

SPTA1 (UniProt P02549)
inactive: [1] 0.015 | filanesib 0.218 | zotarolimus 0.111 | idasanutlin 0.16 | alisertib -0.099 | [2] -0.083 | gefitinib 0.007 | [3] -0.201 | lapatinib 0.097 | pictilisib -0.04

SRRM1 (UniProt Q8IYB3)
inactive: [1] -0.049 | filanesib 0.188 | zotarolimus 0.001 | idasanutlin 0.217 | alisertib 0.028 | [2] -0.213 | gefitinib 0 | [3] 0 | lapatinib 0.055 | pictilisib -0.156

STARD7 (UniProt Q9NQZ5)
inactive: [1] 0.006 | filanesib -0.094 | zotarolimus 0.006 | idasanutlin -0.063 | alisertib 0.027 | [2] -0.171 | gefitinib -0.035 | [3] 0.031 | lapatinib 0.003 | pictilisib 0.01

Retrieved one by one from the list above (2):
STAG1 (UniProt Q8WVM7)
inactive: [1] 0.096 | filanesib -0.001 | zotarolimus 0.045 | idasanutlin -0.046 | alisertib -0.056 | [2] 0.015 | gefitinib 0.002 | [3] 0 | lapatinib 0.023 | pictilisib 0.005

SREBF2 (UniProt Q12772)
inactive: [1] -0.077 | filanesib 0.07 | alisertib 0.653 | gefitinib -0.04 | [3] 0.04

Carrying on:

ST3GAL2 (UniProt Q16842)
inactive: [1] 0.087 | filanesib 0.124 | zotarolimus 0.092 | idasanutlin 0.075 | alisertib -0.134 | [2] 0.1 | gefitinib 0.187 | [3] -0.043 | lapatinib 0.17 | pictilisib 0.102

SRPK1 (UniProt Q96SB4)
inactive: [1] -0.092 | filanesib 0.259 | zotarolimus 0.021 | idasanutlin 0.158 | alisertib 0.005 | [2] -0.084 | gefitinib -0.052 | [3] -0.149 | lapatinib 0.137 | pictilisib -0.182

STK26 (UniProt Q9P289)
inactive: [1] 0.018 | filanesib -0.147 | zotarolimus -0.03 | idasanutlin 0.045 | alisertib -0.059 | [2] 0.069 | gefitinib -0.037 | [3] 0.009 | lapatinib 0.019 | pictilisib -0.105
